Structures were worked out from names or drawings and are uncertain.
What was measured:
[1] = target: human aldosterone synthase (CYP11B2) (Homo sapiens, UniProt P19099); assay: Assay of human aldosterone synthase (CYP11B2) inhibition; conditions: G402 cell line stably overexpressing human CYP11B2; substrate 11-deoxycorticosterone (11-DOC); 24 h incubation; aldosterone in supernatant by HTRF
From the text: Experimental reagents and instruments: Aldosterone kit (Cisbio, Cat#64ALDPEG); Envision plate reader (PerkinElmer).
Experimental principle and method: In humans, aldosterone synthase (CYP11B2) catalyses the conversion of 11-deoxycorticosterone (11-DOC) to aldosterone through a series of metabolic processes. In this experiment, a G402 cell line stably overexpressing-Human CYP11B2 was established in vitro (according to Valentin-Goyco J, et al. Selectivity of osilodrostat as an inhibitor of human steroidogenic cytochromes P450. J Steroid Biochem Mol Biol. 2023, 231:106316). The cells were incubated with 11-deoxycorticosterone (11-DOC) as the substrate, the test compound was added simultaneously. After co-incubation, the supernatant was collected, and aldosterone levels in the supernatant were then measured by HTRF assay. The inhibitory effect of the compound on aldosterone synthase (CYP11B2) was calculated based on aldosterone concentration.
(§1) Experimental steps: 11-Deoxycorticosterone (11-DOC) was added to the wells of a plate pre-seeded with the cells (10,000 cells/well) 24h prior to assay initiation. Then, the compound diluted to different concentrations was added to the corresponding wells and mixed thoroughly. Control wells were set up simultaneously. The final concentration of DMSO was 0.1%. The plate was placed in a 37°C/5% CO2 humidified incubator and incubated for 24 h. Post-incubation, 10 µL supernatant was added to a 384-well plate. 5 µL of Acceptor working solution and 5 µL of Donor Antibody were added to each well, followed by centrifugation at 1000 rpm for 1 minute. The plate was incubated at room temperature for 60-120 minutes. Finally, the fluorescence signal ratio at 665 nm/615 nm was measured using an Envision plate reader (PerkinElmer).
(§2) Experimental data processing method: Test data were processed and analysed using GraphPad Prism 5 software. First, the mean reaction signal values of the high-signal control wells and low-signal control wells were calculated separately. Then, the reaction inhibition rate for each compound well was calculated according to the following formula: Inhibition rate (%) = 100 - (Mean of high-signal control group - Signal value of individual well) / (Mean of high-signal control group - Mean of low-signal control group). Subsequently, the concentration and corresponding inhibition rate data were imported into Prism 5 software. The inhibition rate-concentration curve was fitted using the "log(inhibitor) vs. response - Variable slope" method in the software, and the IC50 value of the compound was calculated.

Protein sequences, listed by entry. Tags and fused reporters are not part of them. Residues count along the entry.
UniProt P19099, 25-503 limits assumed: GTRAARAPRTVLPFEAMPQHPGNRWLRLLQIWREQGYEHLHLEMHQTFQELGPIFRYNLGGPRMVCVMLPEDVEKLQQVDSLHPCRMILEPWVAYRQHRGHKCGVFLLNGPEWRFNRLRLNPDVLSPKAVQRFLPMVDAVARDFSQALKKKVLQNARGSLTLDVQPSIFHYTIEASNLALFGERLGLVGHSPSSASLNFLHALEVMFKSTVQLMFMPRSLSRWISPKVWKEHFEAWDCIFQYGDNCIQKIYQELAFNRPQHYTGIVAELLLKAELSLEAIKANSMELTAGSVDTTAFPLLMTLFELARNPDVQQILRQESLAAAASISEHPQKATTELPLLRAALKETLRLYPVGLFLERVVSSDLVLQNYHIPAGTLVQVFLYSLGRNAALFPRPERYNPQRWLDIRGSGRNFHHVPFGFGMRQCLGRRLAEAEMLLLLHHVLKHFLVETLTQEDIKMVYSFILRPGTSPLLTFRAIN
UniProt P15538, 25-503 limits assumed: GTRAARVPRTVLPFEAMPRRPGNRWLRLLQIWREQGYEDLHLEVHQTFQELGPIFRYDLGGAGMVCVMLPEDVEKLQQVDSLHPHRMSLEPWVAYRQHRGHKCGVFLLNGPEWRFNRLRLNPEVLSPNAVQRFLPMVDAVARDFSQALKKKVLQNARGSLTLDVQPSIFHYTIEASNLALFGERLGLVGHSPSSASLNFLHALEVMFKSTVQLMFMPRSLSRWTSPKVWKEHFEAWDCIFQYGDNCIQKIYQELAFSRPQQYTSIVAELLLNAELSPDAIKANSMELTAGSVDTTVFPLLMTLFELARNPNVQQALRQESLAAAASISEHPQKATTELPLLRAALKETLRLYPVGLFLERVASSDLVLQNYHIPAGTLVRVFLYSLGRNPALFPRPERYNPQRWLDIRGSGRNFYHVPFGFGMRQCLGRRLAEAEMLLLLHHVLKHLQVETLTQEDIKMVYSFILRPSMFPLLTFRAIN

[2] = target: 11β-hydroxylase (CYP11B1) (Homo sapiens, UniProt P15538); assay: Assay of human CYP11B1 inhibition (selectivity CYP11B2/CYP11B1); conditions: G402-derived stable cell lines overexpressing human CYP11B1 / CYP11B2; CYP11B1: substrate 11-deoxycortisol, cortisol by HTRF
Protocol: Experimental reagents and instruments: Cortisol kit (Cisbio, Cat#62ALDPEG); Envision plate reader (PerkinElmer)
Experimental principle and method: In humans, 11β-hydroxylase (CYP11B1) is the key enzyme responsible for the biosynthesis of cortisol. In this experiment, a G402-derived stable cell line overexpressing human CYP11B1 was established in vitro. The cells were incubated with using 11-deoxycortisol as the substrate, and the test compound was added simultaneously. After co-incubation, the supernatant was collected, and cortisol levels in the supernatant were then measured by HTRF assay, and the inhibitory effect of the compound on 11β-hydroxylase (CYP11B1) was calculated.
as §1, with “11-Deoxycortisol” for “11-Deoxycorticosterone (11-DOC)”
as §2

| Compound | IC50 [1] | Ratio of CYP11B1 IC50 to CYP11B2 IC50 [2] |
| --- | --- | --- |
| CN1C(=O)CCc2cc(-c3cncc(N4CCN(CC(=O)N5CCOCC5)CC4)c3)ccc21 | 3 to 10 nM |  |
| CN1C(=O)CCc2cc(-c3cncc(N4CCN(CC(=O)NC5CCC(F)(F)CC5)CC4)c3)ccc21 | 3 to 10 nM | B (500 ≥ B > 200) |
| CN1C(=O)CCc2cc(-c3cncc(N4CCN(CC(=O)NC(C)(C)C)CC4)c3)ccc21 | 3 to 10 nM |  |
| COC12CC(NC(=O)CN3CCN(c4cncc(-c5ccc6c(c5)CCC(=O)N6C)c4)CC3)(C1)C2 | 3 to 10 nM | C (200 ≥ C > 100) |
| CC(C)NC(=O)CN1CCN(c2cncc(-c3ccc4c(c3)CCO4)c2)CC1 |  | D (D ≤ 100) |
| COC1CC2(C1)CN(C(=O)CN1CCN(c3cncc(-c4ccc5c(c4)CCC(=O)N5C)c3)CC1)C2 | 3 to 10 nM | C (200 ≥ C > 100) |
| CN1C(=O)CCc2cc(-c3cncc(N4CCN(CC(=O)N[C@H]5C[C@@H](F)C5)CC4)c3)ccc21 | 3 to 10 nM |  |
| CN1C(=O)CCc2cc(-c3cncc(N4CCN(CC(=O)NC5(C)CC(F)(F)C5)CC4)c3)ccc21 | 3 to 10 nM | B (500 ≥ B > 200) |
| CN1C(=O)CCc2cc(-c3cncc(N4CCN(CC(=O)NC5CCn6ccnc6C5)CC4)c3)ccc21 (stereo not drawn) | 10 to 20 nM | A (A > 500) |
| CN1C(=O)CCc2cc(-c3cncc(N4CCN(CC(=O)N(C)C5CC(F)(F)C5)CC4)c3)ccc21 | 3 to 10 nM |  |
| CN1C(=O)CCc2cc(-c3cncc(N4CCN(CC(=O)N5CCC6(CC5)CC6)CC4)c3)ccc21 | 3 to 10 nM |  |
| CN1C(=O)CCc2cc(-c3cncc(N4CCN(CC(=O)N5CC6(CCOCC6)C5)CC4)c3)ccc21 | 10 to 20 nM |  |
| CN1C(=O)CCc2cc(-c3cncc(N4CCN(CC(=O)NC5COC5)CC4)c3)ccc21 | 10 to 20 nM | C (200 ≥ C > 100) |
| CN1C(=O)CCc2cc(-c3cncc(N4CCN(CC(=O)NC56CC(F)(C5)C6)CC4)c3)ccc21 | 3 to 10 nM | C (200 ≥ C > 100) |
| CN1C(=O)CCc2cc(-c3cncc(N4CCN(CC(=O)N[C@@H]5C[C@@H]5F)CC4)c3)ccc21 | 10 to 20 nM |  |
| CC(=O)N[C@H]1CC[C@H](NC(=O)CN2CCN(c3cncc(-c4ccc5c(c4)CCC(=O)N5C)c3)CC2)CC1 | 10 to 20 nM | B (500 ≥ B > 200) |
| CN1C(=O)CCc2cc(-c3cncc(N4CCN(CC(=O)NC5CCC(F)(F)CC5)CC4)n3)ccc21 | 3 to 10 nM |  |
| CN1C(=O)CCc2cc(-c3cncc(N4CCN(CC(=O)NC5CC(F)(F)C5)CC4)n3)ccc21 | 3 to 10 nM |  |
| CN1C(=O)CCc2cc(-c3cncc(N4CCN(CC(=O)NC56CC7CC(CC(C7)C5)C6)CC4)c3)ccc21 | 10 to 20 nM | B (500 ≥ B > 200) |
| CN1C(=O)CCc2cc(-c3cncc(N4CCN(CC(=O)N[C@H]5C[C@H](F)C5)CC4)c3)ccc21 | 3 to 10 nM |  |
| CN1C(=O)CCc2cc(-c3cncc(N4CCN(C(C)(C)C(=O)Nc5cccnc5)CC4)c3)ccc21 | 3 to 10 nM |  |
| CN1C(=O)CCc2cc(-c3cncc(N4CCN(CC(=O)N5CCC(F)(F)CC5)CC4)c3)ccc21 | 3 to 10 nM | B (500 ≥ B > 200) |
| CC(C)NC(=O)CN1CCN(c2cncc(-c3cc(F)c4c(c3)OCC(=O)N4C)c2)CC1 | 3 to 10 nM |  |
| CN1C(=O)CCc2cc(-c3cncc(N4CCN(CC(=O)N[C@@H]5C[C@H]5F)CC4)c3)ccc21 | 3 to 10 nM |  |
| CN1C(=O)CCc2cc(-c3cncc(N4CCN(CC(=O)NC5(C)CC5)CC4)c3)ccc21 | 3 to 10 nM | B (500 ≥ B > 200) |
| COCC1CC(NC(=O)CN2CCN(c3cncc(-c4ccc5c(c4)CCC(=O)N5C)c3)CC2)C1 (stereo not drawn) | 3 to 10 nM | B (500 ≥ B > 200) |
| CN1C(=O)CCc2cc(-c3cncc(N4CCN(CC(=O)NC(C)(C)C)CC4)n3)ccc21 | 3 to 10 nM |  |

Next, values leading:

| IC50 [1] | Ratio of CYP11B1 IC50 to CYP11B2 IC50 [2] | Compound |
| --- | --- | --- |
| < 3 nM | A (A > 500) | CN1C(=O)CCc2cc(-c3cncc(N4CCN(CC(=O)NC5CC6(CCC6)C5)CC4)c3)ccc21 |
| < 3 nM | C (200 ≥ C > 100) | CN1C(=O)CCc2cc(-c3cncc(N4CCN(CC(=O)NC5CC5(F)F)CC4)c3)ccc21 (stereo not drawn) |
| < 3 nM | B (500 ≥ B > 200) | CN1C(=O)CCc2cc(-c3cncc(N4CCN(CC(=O)NC5CC(F)(F)C5)CC4)c3)ccc21 |
| < 3 nM | B (500 ≥ B > 200) | CN1C(=O)CCc2cc(-c3cncc(N4CCN(CC(=O)NC5CC6(CC6)C5)CC4)c3)ccc21 |
| < 3 nM |  | COc1ccc2cc(-c3cncc(N4CCN(CC(=O)NC(C)C)CC4)c3)ccc2n1 |
| < 3 nM | B (500 ≥ B > 200) | CN1C(=O)CCc2cc(-c3cncc(N4CCN(CC(=O)NC56CC(C)(C5)C6)CC4)c3)ccc21 |
| < 3 nM | B (500 ≥ B > 200) | CN1C(=O)CCc2cc(-c3cncc(N4CCN(CC(=O)NC5CCC6(CC5)CC6)CC4)c3)ccc21 |
| < 3 nM |  | CN1C(=O)CCc2cc(-c3cncc(N4CCN(CC(=O)N(C)C5CC5)CC4)n3)ccc21 |
| < 3 nM |  | CN1C(=O)CCc2cc(-c3cncc(N4CCN(CC(=O)NC5CCC5)CC4)c3)ccc21 |
| < 3 nM | B (500 ≥ B > 200) | CN1C(=O)CCc2cc(-c3cncc(N4CCN(CC(=O)NC5CC(F)C5)CC4)c3)ccc21 (stereo not drawn) |
| < 3 nM |  | CN1C(=O)CCc2cc(-c3cncc(N4CCN(CC(=O)N5CC(F)(F)C5)CC4)c3)ccc21 |
| < 3 nM |  | CN1C(=O)CCc2cc(-c3cncc(N4CCN(CC(=O)N(C)C5CC5)CC4)c3)ccc21 |
| < 3 nM | C (200 ≥ C > 100) | CN1C(=O)CCc2cc(-c3cncc(N4CCN(CC(=O)NC56CC(C(F)(F)F)(C5)C6)CC4)c3)ccc21 |
| < 3 nM | B (500 ≥ B > 200) | CN1C(=O)CCc2cc(-c3cncc(N4CCN(CC(=O)NC5CC5C(F)(F)F)CC4)c3)ccc21 (stereo not drawn) |
| < 3 nM | B (500 ≥ B > 200) | CN1C(=O)CCc2cc(-c3cncc(N4CCN(CC(=O)NC5CC(C(F)(F)F)C5)CC4)c3)ccc21 (stereo not drawn) |
| < 3 nM | A (A > 500) | CN1C(=O)CCc2cc(-c3cncc(N4CCN(CC(=O)NC56CC(C(F)(F)F)(C5)C6)CC4)n3)ccc21 |
| < 3 nM | B (500 ≥ B > 200) | CC(C)N(C)C(=O)CN1CCN(c2cncc(-c3ccc4c(c3)CCC(=O)N4C)n2)CC1 |
| < 3 nM |  | CC(C)NC(=O)CN1CCN(c2cncc(-c3ccc4c(c3)sc(=O)n4C)c2)CC1 |

From patent EP4831167A1, “AROMATIC HETEROCYCLIC COMPOUND, AND PREPARATION METHOD THEREFOR AND USE THEREOF” (dated 2026)
